We go through three substances from article PMC3724652.

Results are given in words; binding and its absence hold for the method and conditions named. Some entries that bind do so weakly or less than the wild type.

The target in test [1] is GluN1 with a Myc tag between residues 416 and 417 (rat) (UniProt P35439). Put plainly: AFM imaging of receptor-antibody complexes; receptors isolated through a His8 tag on Ni2+-agarose from a 1% CHAPS extract of membranes (total cellular pool), incubated with antibodies, imaged in air; angles between two bound antibodies.
In test [2] the target is WT rat GluN1-1a (rat) (UniProt P35439). Put plainly: AFM imaging of receptor-antibody complexes; cell surface receptors (biotinylation, avidin-agarose, then antibody-agarose), incubated with antibodies, imaged in air; volumes and angles between two bound antibodies.
The target is the same in test [3]. The experiment in a line: AFM imaging of receptor-antibody complexes; FLAG/His8-tagged NMDA receptor purified on Ni2+-agarose and then anti-FLAG-agarose, integrated into liposomes (PC:PS 3:1), incubated with anti-GluN1 for 12 h at 4 °C, imaged under fluid (HBS) in a supported lipid bilayer.
Test [4] shares this target. The experiment in a line: AFM imaging of receptor-antibody complexes; receptors isolated by immunoaffinity chromatography from the total cellular pool, incubated with subunit- or tag-specific antibodies, adsorbed to mica at 0.04 nM, imaged in air in tapping mode; volumes of decorated particles and angles between two bound antibodies.
In test [5] the target is GluN1 with a hemagglutinin (HA)/His8 tag between residues 416 and 417 in the ABD (rat) (UniProt P35439). The experiment in a line: AFM imaging of receptor-antibody complexes; receptors isolated through a His8 tag on Ni2+-agarose from a 1% CHAPS extract of membranes (total cellular pool), incubated with antibodies, imaged in air; angles between two bound antibodies.

As for “GluN1 with a Myc tag between residues 416 and 417 (from UniProt P35439 19-938) (receptor)”, in test [1], the binding entry is recorded as “binds”.

As for “WT rat GluN1-1a (from UniProt P35439 19-938) (receptor)”, the binding result with WT rat GluN1-1a (rat) [2], with WT rat GluN1-1a (rat) [3] and with WT rat GluN1-1a (rat) [4] was “binds” in each case.

On to “GluN1 with a hemagglutinin (HA)/His8 tag between residues 416 and 417 in the ABD (from UniProt P35439 19-938) (receptor)”, for which, in test [5], the binding entry is “binds”.
